Measured values published in the supplement of paper PMC5355238.
Where a name gives a salt, the structure may show the parent alone. Some of the results follow. Most values lie at the level of the controls, where differences are scatter.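 Reh, a human leukemia cell line, is read out by flow cytometry as the median γH2AX antibody signal in S-phase cells; the score counts standard deviations from the median difference of each paired plate set. Scores above 2.5 were candidate hits; scores below -2 mark compounds lowering MK1775-induced damage.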

What follows are molecules tested on Reh (assay: Z' of S-phase gammaH2AX difference (drug + MK1775 minus drug alone) (Z-score); higher = stronger synergistic S-phase DNA damage with MK1775). Conditions: MK1775 concentration 400 nM; first compound 10 µM; 4 h.

Compound	Z' of S-phase gammaH2AX difference (Z-score)
CC(C)(C)c1cc(NC(=O)Nc2ccc(-c3cn4c(n3)sc3cc(OCCN5CCOCC5)ccc34)cc2)no1 [Quizartinib (AC220)] + C=CCn1c(=O)c2cnc(Nc3ccc(N4CCN(C)CC4)cc3)nc2n1-c1cccc(C(C)(C)O)n1 [MK1775]	inactive: -0.877
O=C(/C=C/c1cccc(S(=O)(=O)Nc2ccccc2)c1)NO [Belinostat (PXD101)] + C=CCn1c(=O)c2cnc(Nc3ccc(N4CCN(C)CC4)cc3)nc2n1-c1cccc(C(C)(C)O)n1 [MK1775]	inactive: 0.427
COc1ccc2c(c1)c(CC(=O)O)c(C)n2C(=O)c1ccccc1 [1-benzoyl-5-methoxy-2-methylindole-3-acetic acid] + C=CCn1c(=O)c2cnc(Nc3ccc(N4CCN(C)CC4)cc3)nc2n1-c1cccc(C(C)(C)O)n1 [MK1775]	inactive: 0.174
Cc1cc(C(C)(C)C)cc(C)c1CC1=NCCN1 [Xylometazoline hydrochloride] + C=CCn1c(=O)c2cnc(Nc3ccc(N4CCN(C)CC4)cc3)nc2n1-c1cccc(C(C)(C)O)n1 [MK1775]	inactive: 0.293
O=c1[nH]ccc2c(O)cccc12 [1,5-Isoquinolinediol] + C=CCn1c(=O)c2cnc(Nc3ccc(N4CCN(C)CC4)cc3)nc2n1-c1cccc(C(C)(C)O)n1 [MK1775]	inactive: 1.6
O=C(c1cc(O)c(O)c([N+](=O)[O-])c1)c1ccccc1F + C=CCn1c(=O)c2cnc(Nc3ccc(N4CCN(C)CC4)cc3)nc2n1-c1cccc(C(C)(C)O)n1 [MK1775]	inactive: 0.162
COc1ccc2c3n(c(=NC(=O)c4cccnc4)nc2c1OC)CCN3 + C=CCn1c(=O)c2cnc(Nc3ccc(N4CCN(C)CC4)cc3)nc2n1-c1cccc(C(C)(C)O)n1 [MK1775]	inactive: -0.19
CCN(CC)CCOCCOC(=O)C1(c2ccccc2)CCCC1 [Carbetapentane citrate] + C=CCn1c(=O)c2cnc(Nc3ccc(N4CCN(C)CC4)cc3)nc2n1-c1cccc(C(C)(C)O)n1 [MK1775]	inactive: -0.655
CNC(=O)c1ccc(N2C(=S)N(c3ccc(C#N)c(C(F)(F)F)c3)C(=O)C2(C)C)cc1F [MDV3100 (Enzalutamide)] + C=CCn1c(=O)c2cnc(Nc3ccc(N4CCN(C)CC4)cc3)nc2n1-c1cccc(C(C)(C)O)n1 [MK1775]	inactive: 0.149
N[C@H]1CONC1=O [L-Cycloserine] + C=CCn1c(=O)c2cnc(Nc3ccc(N4CCN(C)CC4)cc3)nc2n1-c1cccc(C(C)(C)O)n1 [MK1775]	inactive: 0.19
COc1cc2nc(N3CCN(C(=O)C4COc5ccccc5O4)CC3)nc(N)c2cc1OC (configuration not stated) [Doxazosin mesylate] + C=CCn1c(=O)c2cnc(Nc3ccc(N4CCN(C)CC4)cc3)nc2n1-c1cccc(C(C)(C)O)n1 [MK1775]	inactive: -0.318
OC[C@H]1O[C@@H](n2cnc3c(N[C@H]4CC5CCC4C5)ncnc32)[C@H](O)[C@@H]1O (some centres not stated) + C=CCn1c(=O)c2cnc(Nc3ccc(N4CCN(C)CC4)cc3)nc2n1-c1cccc(C(C)(C)O)n1 [MK1775]	inactive: 0.993
CCOC(=O)[C@@H](C)Oc1cccc2c(=O)n(CC(=O)Nc3ccc4c(c3)OCCO4)ccc12 + C=CCn1c(=O)c2cnc(Nc3ccc(N4CCN(C)CC4)cc3)nc2n1-c1cccc(C(C)(C)O)n1 [MK1775]	inactive: -0.0318
c1cc(CN2CCCCC2)cc(OCCCNc2nc3ccccc3s2)c1 + C=CCn1c(=O)c2cnc(Nc3ccc(N4CCN(C)CC4)cc3)nc2n1-c1cccc(C(C)(C)O)n1 [MK1775]	inactive: 0.296
CCN(CC)CCNC(=O)c1ccc(N)cc1 [Procainamide hydrochloride] + C=CCn1c(=O)c2cnc(Nc3ccc(N4CCN(C)CC4)cc3)nc2n1-c1cccc(C(C)(C)O)n1 [MK1775]	inactive: 0.539
CCOC(=O)C1=C(C)NC(=S)NC1c1cccc(O)c1 (configuration not stated) [Monastrol] + C=CCn1c(=O)c2cnc(Nc3ccc(N4CCN(C)CC4)cc3)nc2n1-c1cccc(C(C)(C)O)n1 [MK1775]	inactive: -0.558
CC[C@H]1OC(=O)[C@H](C)[C@@H](O[C@H]2C[C@@](C)(OC)[C@@H](O)[C@H](C)O2)[C@H](C)[C@@H](O[C@@H]2O[C@H](C)C[C@H](N(C)C)[C@H]2O)[C@](C)(O)C[C@@H](C)CN(C)[C@H](C)[C@@H](O)[C@]1(C)O [Azithromycin (Zithromax)] + C=CCn1c(=O)c2cnc(Nc3ccc(N4CCN(C)CC4)cc3)nc2n1-c1cccc(C(C)(C)O)n1 [MK1775]	inactive: 0.629
OCCn1cc(-c2ccc3c(c2)CC/C3=N\O)c(-c2ccncc2)n1 + C=CCn1c(=O)c2cnc(Nc3ccc(N4CCN(C)CC4)cc3)nc2n1-c1cccc(C(C)(C)O)n1 [MK1775]	inactive: -0.0037
COc1ccc2c(c1)c(CC(=O)O)c(C)n2Cc1ccc(F)cc1 [1-(4-Fluorobenzyl)-5-methoxy-2-methylindole-3-acetic acid] + C=CCn1c(=O)c2cnc(Nc3ccc(N4CCN(C)CC4)cc3)nc2n1-c1cccc(C(C)(C)O)n1 [MK1775]	inactive: 0.935
Cc1ccc(-c2cc(C(F)(F)F)nn2-c2ccc(S(N)(=O)=O)cc2)cc1 [Celecoxib] + C=CCn1c(=O)c2cnc(Nc3ccc(N4CCN(C)CC4)cc3)nc2n1-c1cccc(C(C)(C)O)n1 [MK1775]	inactive: 0.6
CC(C)[N+]1(C)[C@@H]2CC[C@H]1C[C@@H](OC(=O)C(CO)c1ccccc1)C2 (some centres not stated) [Ipratropium bromide] + C=CCn1c(=O)c2cnc(Nc3ccc(N4CCN(C)CC4)cc3)nc2n1-c1cccc(C(C)(C)O)n1 [MK1775]	inactive: 2.31
CNC(=O)[C@@H](NC(=O)[C@H](CC(C)C)[C@H](O)C(=O)NO)C(C)(C)C [Marimastat] + C=CCn1c(=O)c2cnc(Nc3ccc(N4CCN(C)CC4)cc3)nc2n1-c1cccc(C(C)(C)O)n1 [MK1775]	inactive: 0.2

Two consecutive entries out of the list so far, for reference:
Compound	Z' of S-phase gammaH2AX difference (Z-score)
Cc1cc(C(C)(C)C)cc(C)c1CC1=NCCN1 [Xylometazoline hydrochloride] + C=CCn1c(=O)c2cnc(Nc3ccc(N4CCN(C)CC4)cc3)nc2n1-c1cccc(C(C)(C)O)n1 [MK1775]	inactive: 0.293
O=c1[nH]ccc2c(O)cccc12 [1,5-Isoquinolinediol] + C=CCn1c(=O)c2cnc(Nc3ccc(N4CCN(C)CC4)cc3)nc2n1-c1cccc(C(C)(C)O)n1 [MK1775]	inactive: 1.6
